The values below come from article PMC8313409.

The chains behind the UniProt entries cited, without tags or fusion partners. Residues count along the entry.
UniProt P25322: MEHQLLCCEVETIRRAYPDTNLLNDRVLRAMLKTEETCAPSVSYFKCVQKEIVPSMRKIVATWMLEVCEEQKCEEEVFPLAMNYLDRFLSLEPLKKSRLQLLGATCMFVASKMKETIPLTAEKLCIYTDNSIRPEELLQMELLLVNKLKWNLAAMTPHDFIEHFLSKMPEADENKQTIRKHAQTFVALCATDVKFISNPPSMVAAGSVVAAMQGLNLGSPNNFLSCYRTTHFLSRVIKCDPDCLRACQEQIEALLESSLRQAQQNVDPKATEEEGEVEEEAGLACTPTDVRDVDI
UniProt P08113, residues 22-802: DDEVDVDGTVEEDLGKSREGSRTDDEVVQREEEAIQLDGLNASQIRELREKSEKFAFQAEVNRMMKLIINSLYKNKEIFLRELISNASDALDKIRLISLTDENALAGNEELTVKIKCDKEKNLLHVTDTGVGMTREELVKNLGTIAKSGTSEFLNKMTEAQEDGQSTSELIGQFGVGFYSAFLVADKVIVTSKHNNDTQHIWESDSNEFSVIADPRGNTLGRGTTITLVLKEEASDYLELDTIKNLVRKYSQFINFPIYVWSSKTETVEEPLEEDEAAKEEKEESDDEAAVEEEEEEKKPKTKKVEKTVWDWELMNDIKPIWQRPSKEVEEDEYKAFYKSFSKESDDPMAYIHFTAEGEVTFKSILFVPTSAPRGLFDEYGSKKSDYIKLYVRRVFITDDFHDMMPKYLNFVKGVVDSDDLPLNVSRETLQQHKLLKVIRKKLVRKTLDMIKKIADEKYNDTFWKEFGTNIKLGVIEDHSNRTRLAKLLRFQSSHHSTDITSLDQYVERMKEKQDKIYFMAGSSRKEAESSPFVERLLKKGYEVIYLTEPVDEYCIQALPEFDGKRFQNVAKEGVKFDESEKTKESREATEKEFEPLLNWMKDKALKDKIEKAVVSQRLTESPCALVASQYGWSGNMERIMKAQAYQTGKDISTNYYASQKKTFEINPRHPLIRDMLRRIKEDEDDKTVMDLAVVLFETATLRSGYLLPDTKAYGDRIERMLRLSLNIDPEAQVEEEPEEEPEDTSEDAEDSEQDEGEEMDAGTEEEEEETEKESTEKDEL
UniProt P09405: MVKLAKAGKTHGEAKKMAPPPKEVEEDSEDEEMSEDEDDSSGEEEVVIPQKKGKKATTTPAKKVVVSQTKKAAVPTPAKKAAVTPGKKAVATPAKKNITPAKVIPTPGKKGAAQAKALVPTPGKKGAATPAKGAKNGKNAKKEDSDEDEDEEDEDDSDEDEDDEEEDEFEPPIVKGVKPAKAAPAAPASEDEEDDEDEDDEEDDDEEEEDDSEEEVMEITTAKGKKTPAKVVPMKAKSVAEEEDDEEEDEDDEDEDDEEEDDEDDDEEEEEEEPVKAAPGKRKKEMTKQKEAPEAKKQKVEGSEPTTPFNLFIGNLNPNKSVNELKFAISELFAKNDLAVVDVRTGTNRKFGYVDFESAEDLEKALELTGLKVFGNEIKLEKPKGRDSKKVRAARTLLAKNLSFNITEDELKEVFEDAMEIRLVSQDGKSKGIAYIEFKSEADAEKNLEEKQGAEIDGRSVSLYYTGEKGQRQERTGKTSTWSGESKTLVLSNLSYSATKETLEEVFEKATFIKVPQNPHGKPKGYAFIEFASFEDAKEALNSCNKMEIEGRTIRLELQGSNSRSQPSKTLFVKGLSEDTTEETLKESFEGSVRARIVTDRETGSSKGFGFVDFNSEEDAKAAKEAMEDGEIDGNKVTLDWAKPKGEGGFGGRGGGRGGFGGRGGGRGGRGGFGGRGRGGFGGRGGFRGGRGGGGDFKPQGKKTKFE

Results are given in words; binding and its absence hold for the method and conditions named. In cells and extracts the contact can be indirect. These calls come from enrichment with a bait or labelling near it, and not all partners need be listed.

Experiment [1] deals with cyclin D1–APEX (UniProt P25322). The experiment is described as follows: proximity labelling; APEX in RA-induced N2A cells stably expressing cyclin D1–APEX; biotin-phenol with H2O2 (B+H) against biotin-phenol alone (B); streptavidin beads, mass spectrometry.
The target is the same in experiment [2]. The experiment is described as follows: proximity labelling; APEX in mESCs incubated 2 d with cyclin D1–APEX EVs in N2B27 medium; biotin-phenol with H2O2; streptavidin pull-down, mass spectrometry and immunoblot. (Immunoblotting shows a protein as a band on a membrane.)

For Hsp90b1 (from UniProt P08113 22-802), the binding result in the experiment with cyclin D1–APEX [1] was “binds”. Regarding nucleolin (from UniProt P09405 1-707), in the experiment with cyclin D1–APEX [2], the binding entry is recorded as “binds”.
